{"source": "patent US8710062B2", "about": "“Piperazinedione compounds” (Taipei Medical University, priority 2011, dated 2014)", "origin": "cited, not measured here", "test_system": "60 Human Cancer Cell Lines (NCI-60)", "settings": "data obtained from the NCI/DTP database (asterisk); cited from earlier work", "data": [{"smiles": "Cc1ccc(NC(=O)c2ccc(CN3CCN(C)CC3)cc2)cc1Nc1nccc(-c2cccnc2)n1", "note": "[Gleevec]", "values": [{"measurement": "pIC50", "value": 4.82}]}]}
